Measured data: PubChem BioAssay AID743121 (NCATS, 2013)
Here is one part, drawn at random, of about 26,000 reagents tested. 167 of them (0.63%) were called active. 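Calls are per gene from RSA p-values that are not deposited; an individual active-marked siRNA can sensitise only weakly.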 Reagent sequences are not shown.

Aim: 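Knock-downs that sensitise breast cancer cells to camptothecin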 (primary screen)
System: MDA-MB-231 cells, a human breast cancer line
Reagents: single siRNA against human genes, 20 nM siRNA (0.8 pmol per well)
Time to read-out: 120 h (drug added 48 h after transfection, read 72 h later)
Challenge: camptothecin 20 nM (about EC30) for 72 h; vehicle 0.1% DMSO in parallel plates
Measurement: 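CellTiter-Glo ATP signal, scaled to control siRNA as percent viability; sensitisation given as log2 of untreated divided by camptothecin-treated viability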
Direction: log2 vehicle/camptothecin viability: higher = stronger sensitisation to camptothecin; viability with camptothecin and viability without drug: higher = more viable cells
Rule for the call: 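Active genes have an RSA gene-level p-value below 0.001, computed from the ratios of their separate siRNAs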

no.	gene symbol	PubChem SID	log2 vehicle/camptothecin viability	viability with camptothecin (% of control)	viability without drug (% of control)	Outcome
1	CR1L (complement C3b/C4b receptor 1 like)	SID164359631	-0.133	115	105	inactive
2	CR1L (complement C3b/C4b receptor 1 like)	SID164359632	0.232	34.4	40.4	inactive
3	CR1L (complement C3b/C4b receptor 1 like)	SID164359634	-0.0138	96.4	95.5	inactive
4	CR1L (complement C3b/C4b receptor 1 like)	SID164359636	-0.508	94.9	66.7	inactive
5	ADAMTS14 (ADAM metallopeptidase with thrombospondin type 1 motif 14)	SID164572253	-0.123	67.5	61.9	inactive
6	ADAMTS14 (ADAM metallopeptidase with thrombospondin type 1 motif 14)	SID164572254	-0.0141	100	99.3	inactive
7	ADAMTS14 (ADAM metallopeptidase with thrombospondin type 1 motif 14)	SID164572258	-0.375	84.2	64.9	inactive
8	RNF34 (ring finger protein 34)	SID164535491	0.136	103	113	inactive
9	RNF34 (ring finger protein 34)	SID164535492	-0.127	93.1	85.3	inactive
10	RNF34 (ring finger protein 34)	SID164535493	0.0343	81.3	83.2	inactive
11	RNF34 (ring finger protein 34)	SID164535496	1.08	41.2	87.3	inactive
12	ITGA5 (integrin subunit alpha 5)	SID164371933	-0.0728	63.8	60.6	inactive
13	ITGA5 (integrin subunit alpha 5)	SID164371934	-0.342	26.8	21.2	inactive
14	ITGA5 (integrin subunit alpha 5)	SID164371935	-0.057	101	97.5	inactive
15	ITGA5 (integrin subunit alpha 5)	SID164371936	0.164	21.6	24.2	inactive
16	PSMD2 (proteasome 26S subunit ubiquitin receptor, non-ATPase 2)	SID164383467	-0.515	59.2	41.4	inactive
17	PSMD2 (proteasome 26S subunit ubiquitin receptor, non-ATPase 2)	SID164383468	-0.117	23.8	21.9	inactive
18	PSMD2 (proteasome 26S subunit ubiquitin receptor, non-ATPase 2)	SID164383469	0.0835	31.7	33.6	inactive
19	LHPP	SID164500986	-0.921	41.4	21.9	inactive
20	LHPP	SID164500987	-0.312	115	92.5	inactive
21	LHPP	SID164500988	1.03	17	34.8	inactive
22	LHPP	SID164500991	-0.14	110	99.9	inactive
23	RACK1 (receptor for activated C kinase 1)	SID164410718	-0.245	62.3	52.6	inactive
24	RACK1 (receptor for activated C kinase 1)	SID164410721	0.683	33	52.9	inactive
25	RACK1 (receptor for activated C kinase 1)	SID164410725	-0.0862	93.2	87.8	inactive
26	TNFSF4 (TNF superfamily member 4)	SID164393025	-0.00139	75.7	75.6	inactive
27	TNFSF4 (TNF superfamily member 4)	SID164393026	-0.257	84.1	70.4	inactive
28	TNFSF4 (TNF superfamily member 4)	SID164393027	0.29	51.7	63.3	inactive
29	TNFSF4 (TNF superfamily member 4)	SID164393028	-0.278	126	104	inactive
30	GDI1 (GDP dissociation inhibitor 1)	SID164366355	-0.612	68.6	44.8	inactive
31	GDI1 (GDP dissociation inhibitor 1)	SID164366356	-0.664	104	65.7	inactive
32	GDI1 (GDP dissociation inhibitor 1)	SID164366359	-0.31	71.7	57.8	inactive
33	GDI1 (GDP dissociation inhibitor 1)	SID164366360	-0.24	99.9	84.5	inactive
34	MS4A3 (membrane spanning 4-domains A3)	SID164357164	-0.0961	63.1	59.1	inactive
35	MS4A3 (membrane spanning 4-domains A3)	SID164357166	0.388	48.5	63.4	inactive
36	MS4A3 (membrane spanning 4-domains A3)	SID164357168	0.155	70.8	78.8	inactive
37	ITPKA (inositol-trisphosphate 3-kinase A)	SID164372138	0.213	47.2	54.7	inactive
38	ITPKA (inositol-trisphosphate 3-kinase A)	SID164372139	-0.343	102	80.3	inactive
39	ITPKA (inositol-trisphosphate 3-kinase A)	SID164372140	-0.163	54.2	48.4	inactive
40	ITPKA (inositol-trisphosphate 3-kinase A)	SID164372141	-0.445	103	76	inactive
41	PSPH (phosphoserine phosphatase)	SID164383578	-0.121	72.6	66.7	inactive
42	PSPH (phosphoserine phosphatase)	SID164383580	-0.0854	92.2	86.9	inactive
43	PSPH (phosphoserine phosphatase)	SID164383583	-0.0317	20.9	20.4	inactive
44	PSPH (phosphoserine phosphatase)	SID164383584	-0.348	67.9	53.4	inactive
45	NPSR1 (neuropeptide S receptor 1)	SID164676287	-0.0309	88	86.1	inactive
46	NPSR1 (neuropeptide S receptor 1)	SID164676288	-0.0951	100	93.8	inactive
47	NPSR1 (neuropeptide S receptor 1)	SID164676291	0.715	61.1	100	inactive
48	NPSR1 (neuropeptide S receptor 1)	SID164676296	-0.233	41	34.9	inactive
49	LTC4S (leukotriene C4 synthase)	SID164374289	-0.263	46.2	38.5	inactive
50	LTC4S (leukotriene C4 synthase)	SID164374290	0.0102	90.6	91.3	inactive
51	LTC4S (leukotriene C4 synthase)	SID164374291	-0.503	71.8	50.7	inactive
52	LTC4S (leukotriene C4 synthase)	SID164374292	-0.43	98.3	73	inactive
53	ITCH (itchy E3 ubiquitin protein ligase)	SID164541468	-0.302	74.2	60.2	inactive
54	ITCH (itchy E3 ubiquitin protein ligase)	SID164541470	0.091	48	51.1	inactive
55	ITCH (itchy E3 ubiquitin protein ligase)	SID164541471	-0.0381	59.7	58.2	inactive
56	ITCH (itchy E3 ubiquitin protein ligase)	SID164541474	-0.0255	100	98.5	inactive
57	DPP9 (dipeptidyl peptidase 9)	SID164550715	0.0864	96	102	inactive
58	DPP9 (dipeptidyl peptidase 9)	SID164550717	0.261	74.5	89.2	inactive
59	DPP9 (dipeptidyl peptidase 9)	SID164550718	0.438	47.2	63.9	inactive
60	DPP9 (dipeptidyl peptidase 9)	SID164550719	0.0249	111	112	inactive
61	CDX2 (caudal type homeobox 2)	SID164357941	0.159	89.1	99.5	inactive
62	CDX2 (caudal type homeobox 2)	SID164357944	-0.328	85.9	68.4	inactive
63	CDX2 (caudal type homeobox 2)	SID164357945	-0.286	82	67.2	inactive
64	SLC6A18	SID164660159	0.0344	86.1	88.2	inactive
65	SLC6A18	SID164660161	-0.109	105	96.9	inactive
66	SLC6A18	SID164660163	-0.423	9.95	7.42	inactive
67	ADAM28 (ADAM metallopeptidase domain 28)	SID164413842	-0.324	89.1	71.2	inactive
68	ADAM28 (ADAM metallopeptidase domain 28)	SID164413843	-0.333	73.6	58.4	inactive
69	ADAM28 (ADAM metallopeptidase domain 28)	SID164413846	-0.352	94.5	74.1	inactive
70	ADAM28 (ADAM metallopeptidase domain 28)	SID164413847	-0.608	54.7	35.9	inactive
71	ABCB1 (ATP binding cassette subfamily B member 1)	SID164380508	-0.132	75.6	69	inactive
72	ABCB1 (ATP binding cassette subfamily B member 1)	SID164380509	-0.46	33.2	24.2	inactive
73	ABCB1 (ATP binding cassette subfamily B member 1)	SID164380510	-0.253	103	86.4	inactive
74	ABCB1 (ATP binding cassette subfamily B member 1)	SID164380513	-0.0216	57.4	56.5	inactive
75	BABAM2 (BRISC and BRCA1 A complex member 2)	SID164404655	-0.274	77.6	64.2	inactive
76	BABAM2 (BRISC and BRCA1 A complex member 2)	SID164404658	-0.474	76.7	55.2	inactive
77	BABAM2 (BRISC and BRCA1 A complex member 2)	SID164404661	-0.0862	106	99.6	inactive
78	BABAM2 (BRISC and BRCA1 A complex member 2)	SID164404662	0.0198	75.1	76.1	inactive
79	PRSS48 (serine protease 48)	SID164659401	-1.47	61.6	22.2	inactive
80	PRSS48 (serine protease 48)	SID164659402	-0.0388	92.4	89.9	inactive
81	PRSS48 (serine protease 48)	SID164659403	-0.147	68.2	61.6	inactive
82	PRSS48 (serine protease 48)	SID164659404	0.346	23.3	29.6	inactive
83	DCN (decorin)	SID164361137	-0.674	44	27.5	inactive
84	DCN (decorin)	SID164361139	0.0253	87.5	89.1	inactive
85	DCN (decorin)	SID164361141	0.387	43	56.2	inactive
86	DCN (decorin)	SID164361142	-0.191	93.4	81.9	inactive
87	PPEF2 (protein phosphatase with EF-hand domain 2)	SID164381917	0.0889	73.3	77.9	inactive
88	PPEF2 (protein phosphatase with EF-hand domain 2)	SID164381922	-0.205	53.2	46.2	inactive
89	PPEF2 (protein phosphatase with EF-hand domain 2)	SID164381923	-0.134	95.8	87.3	inactive
90	PPEF2 (protein phosphatase with EF-hand domain 2)	SID164381924	-0.156	85.7	76.9	inactive

Part of the list above, reduced to “viability without drug (% of control)”:
TNFSF4 (TNF superfamily member 4) [SID164393025]: 75.6
TNFSF4 (TNF superfamily member 4) [SID164393026]: 70.4
TNFSF4 (TNF superfamily member 4) [SID164393027]: 63.3
TNFSF4 (TNF superfamily member 4) [SID164393028]: 104
GDI1 (GDP dissociation inhibitor 1) [SID164366355]: 44.8
GDI1 (GDP dissociation inhibitor 1) [SID164366356]: 65.7
GDI1 (GDP dissociation inhibitor 1) [SID164366359]: 57.8
GDI1 (GDP dissociation inhibitor 1) [SID164366360]: 84.5
MS4A3 (membrane spanning 4-domains A3) [SID164357164]: 59.1
